No constants are given. Whether binding was seen depends on the method and setting. In cells and extracts the contact can be indirect. Binding calls can cover weak binding; strength is not graded here.
Target: T1, ATPase family AAA domain-containing 3A (ATAD3A), endogenous (human (endogenous in MDA-MB-468, BT549, HeLa229, HEK293T)) (UniProt Q9NVI7)
T1 sequence: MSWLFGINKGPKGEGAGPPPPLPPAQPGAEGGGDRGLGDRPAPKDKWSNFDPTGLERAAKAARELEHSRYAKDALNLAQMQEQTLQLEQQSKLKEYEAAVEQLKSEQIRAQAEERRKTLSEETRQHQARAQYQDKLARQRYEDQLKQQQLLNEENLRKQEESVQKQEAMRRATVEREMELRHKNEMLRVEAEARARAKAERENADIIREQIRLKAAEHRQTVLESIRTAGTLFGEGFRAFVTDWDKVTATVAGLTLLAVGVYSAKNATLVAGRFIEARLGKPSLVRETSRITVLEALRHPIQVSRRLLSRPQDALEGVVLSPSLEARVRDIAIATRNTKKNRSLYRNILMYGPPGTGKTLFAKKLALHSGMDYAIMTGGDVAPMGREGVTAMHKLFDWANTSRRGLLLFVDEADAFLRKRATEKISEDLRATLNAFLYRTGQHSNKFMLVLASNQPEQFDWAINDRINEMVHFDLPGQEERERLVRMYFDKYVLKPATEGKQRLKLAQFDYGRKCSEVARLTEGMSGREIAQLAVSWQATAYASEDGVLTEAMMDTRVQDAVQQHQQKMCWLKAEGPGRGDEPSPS
Assay: co-IP; HEK293T cells transfected with GFP-MUC1-CD truncated mutant plasmids; IP with anti-ATAD3A antibody, blot with anti-GFP and anti-ATAD3A

binding: binds
Substance: GFP-MUC1-CD1-20 (domain or fragment)
